In US20230310623:
Construct, isoform or probe ends are uncertain for at least one entry. At least one result comes from cells or an extract, where the contact may be indirect. Weaker means in comparison with the reference protein, sequence or condition of that experiment.

The chains behind the UniProt entries cited, without tags or fusion partners. A line that says so, or that is headed by a name, gives the form on record, which may keep a tag or linker.
UniProt Q01196, other isoform, or with tags, fused parts or gaps: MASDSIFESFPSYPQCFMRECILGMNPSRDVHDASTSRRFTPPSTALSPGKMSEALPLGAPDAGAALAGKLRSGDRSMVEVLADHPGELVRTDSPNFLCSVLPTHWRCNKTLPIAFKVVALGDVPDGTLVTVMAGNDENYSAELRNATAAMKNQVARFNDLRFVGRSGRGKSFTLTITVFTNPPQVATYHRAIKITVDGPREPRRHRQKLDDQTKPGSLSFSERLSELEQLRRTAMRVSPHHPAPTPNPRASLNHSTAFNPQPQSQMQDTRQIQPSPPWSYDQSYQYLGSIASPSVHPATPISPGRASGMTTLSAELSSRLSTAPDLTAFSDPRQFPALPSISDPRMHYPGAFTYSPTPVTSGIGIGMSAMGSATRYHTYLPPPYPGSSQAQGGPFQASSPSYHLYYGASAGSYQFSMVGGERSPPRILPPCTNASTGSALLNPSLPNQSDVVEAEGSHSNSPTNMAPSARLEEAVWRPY

Target: RUNX1 (endogenous) (Homo sapiens) (UniProt Q01196)
Assay: pull-down
Details: protein in an extract, label: 5' biotin on forward strand

CAGTGGTGTGGCAGAGCTAC (double strand) [PrPr Runx1 wt oligo]
binding result (nuclear extract, 100 mM KCl, 5 mM MgCl2, immunoblot): binds

AGGGTGTGGCAGGTGTGGACGT (double strand) [URE Runx1 wt oligo]
binding result (nuclear extract, 100 mM KCl, 5 mM MgCl2, 4 C pre-clear, immunoblot): binds

AGGCTCTCACAGCTCTCAACGT (double strand) [URE Runx1 mt oligo]
binding result (drastic reduction vs wild type, variant of URE Runx1 wt oligo): binds more weakly

CAGTGCTCTCACAGAGCTAC (double strand) [PrPr Runx1 mt oligo]
binding result (drastic reduction vs wild type, variant of PrPr Runx1 wt oligo): binds more weakly
